# From PubChem BioAssay AID1487 (National Center for Advancing Translational Sciences (NCATS), 2009)
# The other results are listed elsewhere or left out. Further columns of the screen follow, without active or inactive calls. Compounds called inactive in the main read-out are mostly missing here. Words in brackets tell the shape of the fitted curve; partial curves, single points and poor fits give uncertain potencies.
# Assay: qHTS Assay for Modulators of Lamin A Splicing
# Settings: HeLa LMNA splicing GFP/RFP minigene ratio, 48 h
# Summary of the method: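 S3 HeLa cells stably expressing lamin A-EGFP splicing minigene plus DsRed2, 600 cells/well, 48 h compound exposure at 37C. Laser-scanning cytometry; analysed as GFP (500-530 nm)/RFP (575-640 nm) total intensity ratio; 0.5% DMSO vehicle.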
# [1] = measured here: GFP splicing reporter channel
# [2] = measured here: RFP viability control channel
smiles,measurement,setting,value
Cc1ccc2c(c1)-c1onc(C(=O)N3CCN(c4cccc(C)c4C)CC3)c1CO2,AC50,[1],"11.2 µM [falling, single point]"
Cc1cc(C(F)(F)F)c2c(N)c(C(=O)Nc3c(Cl)cccc3Cl)sc2n1,AC50,[1],"2.82 µM [rising, partial curve, poor fit]"
same,AC50,[2],"0.501 µM [rising, full curve, poor fit]"
CCN(CCNC(=O)C1CCCN(Cc2nc(-c3ccc(OC)cc3)oc2C)C1)c1ccccc1 (configuration not stated),AC50,[1],"12.6 µM [rising, partial curve]"
same,AC50,[2],"22.4 µM [rising, partial curve]"
COC(=O)N/N=C/c1ccc(/C=N/NC(=O)OC)cc1,AC50,[1],"0.224 µM [falling, partial curve, poor fit]"
same,AC50,[2],"1.78 µM [falling, partial curve, poor fit]"
Fc1ccc(NC(=S)N2CCCc3ccccc32)cc1,AC50,[1],"15.8 µM [rising, single point]"
same,AC50,[2],"20 µM [rising, single point]"
O=P1(c2ccccc2)C=Cn2c1cc1c2CCCC1 (configuration not stated),AC50,[1],"31.6 µM [rising, single point]"
Cc1nn(Cc2ccccc2Cl)c(C)c1NC(=O)CSc1n[nH]c(C)c1[N+](=O)[O-],AC50,[2],"15.8 µM [rising, partial curve]"
O=[N+]([O-])c1ccc2c(c1)nc1n2CCN(CC2CCCO2)C1 (configuration not stated),AC50,[1],"17.8 µM [falling, partial curve, poor fit]"
CCc1ccc(OCC(=O)NCC(c2ccc(Cl)cc2)N2CCOCC2)cc1 (configuration not stated),AC50,[1],"3.16 µM [falling, full curve, poor fit]"
same,AC50,[2],"1.26 µM [falling, full curve, poor fit]"
Cc1cc(C)c(NC(=O)c2ccc(CN3CCc4ccccc4C3)cc2)c(C)c1,AC50,[2],"35.5 µM [rising, single point]"
CC(C)C(c1nnnn1Cc1ccco1)N1CCN(c2cccc(Cl)c2)CC1 (configuration not stated),AC50,[1],"31.6 µM [rising, single point]"
same,AC50,[2],"35.5 µM [rising, single point]"
COc1ccc(N2CCc3c(C)nc(SC)nc32)cc1,AC50,[2],"5.62 µM [rising, single point]"
Cc1cccc(NC(=O)CSc2nc3ccccc3c3nc(CCn4cncc4C)nn23)c1,AC50,[1],"1.58 µM [falling, partial curve, poor fit]"
Nc1cc(Cl)ccc1N1CCCCCC1,AC50,[1],"11.2 µM [falling, partial curve]"
same,AC50,[2],"35.5 µM [falling, single point]"
CCn1ncc(C2=NOC(C(=O)NCc3ccc(OC)cc3)C2)c1C (configuration not stated),AC50,[1],"35.5 µM [rising, single point]"
same,AC50,[2],"31.6 µM [rising, single point]"
CC(C)Oc1ccc(CNC(=O)C2CCN(C(=O)N3CCOc4ccc(Cl)cc43)CC2)cc1,AC50,[2],"22.4 µM [rising, single point]"
CCOC(=O)C1(Nc2nccs2)Sc2ccccc2NC1=O (configuration not stated),AC50,[2],"0.1 µM [rising, single point]"
O=C(CNC(=O)c1ccccc1)N/N=C/c1cc(Br)ccc1O,AC50,[2],"14.1 µM [rising, single point]"
CCOc1ccc(Cc2nc(N)nc(N)n2)cc1,AC50,[2],"35.5 µM [rising, single point]"
O=C(Nc1ccc(NC(=S)NC(=O)c2cccs2)cc1)c1ccco1,AC50,[1],"14.1 µM [falling, single point]"
same,AC50,[2],"10 µM [falling, partial curve]"
Cc1ccccc1Cn1c(=N)n(CC(=O)c2ccc([N+](=O)[O-])cc2)c2ccccc21,AC50,[2],"0.0501 µM [rising, full curve, poor fit]"
CC(=O)Nc1cc(C(=O)NCCN2CCN(Cc3ccccc3)CC2)ccc1Sc1ccc(C)cc1,AC50,[1],"1.12 µM [falling, partial curve]"
same,AC50,[2],"1.41 µM [falling, partial curve]"
O=[N+]([O-])c1cc(S(=O)(=O)C(F)(F)F)ccc1Sc1nc2ccccc2[nH]1,AC50,[1],"3.55 µM [falling, partial curve, poor fit]"
same,AC50,[2],"25.1 µM [falling, single point]"
Cc1cccc(N(Cc2ccc(Cl)cc2)S(C)(=O)=O)c1,AC50,[1],"0.794 µM [rising, full curve, poor fit]"
Cc1cccc(NC(=S)NNC(=O)c2csc(C(C)C)c2)c1,AC50,[2],"35.5 µM [rising, single point]"
Cc1cc2nnc(SCC(=O)NCc3cccs3)n2c2ccccc12,AC50,[2],"4.47 µM [rising, full curve]"
O=C(CSc1nc2ccc(Cl)cc2[nH]1)NCCc1ccc(Cl)cc1,AC50,[1],"12.6 µM [rising, single point]"
same,AC50,[2],"22.4 µM [rising, single point]"
COc1cccc(C2CN(c3ccc(F)cc3F)N=C2c2cccs2)c1OC (configuration not stated),AC50,[2],"22.4 µM [rising, single point]"
COC(=O)CNC(c1ccccc1Cl)c1cc(Br)ccc1NS(=O)(=O)c1ccc(C)cc1 (configuration not stated),AC50,[2],"35.5 µM [rising, single point]"
O=C1CCCN1c1ccc(S(=O)(=O)NCCc2ccc(Cl)cc2)cc1,AC50,[2],"35.5 µM [rising, single point]"
COc1cc(-c2nc3cnccn3c2Nc2ccc(C(C)C)cc2)ccc1O,AC50,[1],"15.8 µM [falling, single point]"
same,AC50,[2],"15.8 µM [falling, single point]"
COc1ccc([C@H]2[C@H](C(=O)OC(C)(C)C)N3N=Cc4ccccc4C3C23C(=O)c2ccccc2C3=O)c(OC)c1 (some centres not stated),AC50,[1],"35.5 µM [rising, single point]"
Cc1nn2c(=O)cc(COC(=O)c3ccc(NC(=O)c4ccc(C(C)(C)C)cc4)cc3)nc2s1,AC50,[1],"14.1 µM [falling, partial curve]"
same,AC50,[2],"15.8 µM [falling, partial curve]"
Cc1ccc(Oc2ccc(Cl)cc2NC(=O)c2ccc(F)cc2F)cc1,AC50,[1],"10 µM [rising, partial curve, poor fit]"
same,AC50,[2],"14.1 µM [rising, partial curve]"
CCOc1ccc(NS(=O)(=O)c2cc(Cl)ccc2OC)cc1,AC50,[2],"15.8 µM [rising, partial curve]"
O=[N+]([O-])c1cccc(C2NCC(c3ccccc3Cl)c3c2[nH]c2ccccc32)c1 (configuration not stated),AC50,[1],"14.1 µM [falling, single point]"
same,AC50,[2],"11.2 µM [falling, partial curve, poor fit]"
CC(C)NC(=O)c1onc(CSc2cccc(F)c2)c1C(=O)O,AC50,[1],"17.8 µM [falling, single point]"
CCOc1cc(/C=C2\SC(=O)N=C2N)ccc1O,AC50,[2],"11.2 µM [rising, partial curve]"
O=C(N/N=C/c1cn(-c2cccs2)nc1-c1ccccc1)c1ccccc1Cl,AC50,[2],"31.6 µM [rising, single point]"
COc1cc(Br)cc(/C=N/NC(=O)Cc2ccc(C(F)(F)F)cc2[N+](=O)[O-])c1O,AC50,[2],"3.16 µM [rising, single point]"
COc1ccc(/C=N/Nc2nnc(C)n2N)cc1OC,AC50,[1],"35.5 µM [falling, single point]"
same,AC50,[2],"35.5 µM [falling, single point]"
Clc1ccccc1CN(Cc1ccccc1)c1ncnc2nc[nH]c12,AC50,[2],"15.8 µM [rising, partial curve, poor fit]"
CCOc1ccc(OCC)c(NC(=O)CSc2nc3c(c(=O)n(C)c(=O)n3C)n2C(C)C)c1,AC50,[1],"22.4 µM [rising, single point]"
same,AC50,[2],"17.8 µM [rising, single point]"
COc1cc(Cl)c(NC(=O)CN(C)S(=O)(=O)c2ccc3[nH]c4c(c3c2)CCCC4)c(OC)c1,AC50,[1],"0.0355 µM [falling, full curve]"
O=C(Nc1ccc(Cl)cc1)c1ccc(Br)cc1F,AC50,[1],"0.178 µM [falling, full curve]"
same,AC50,[2],"5.01 µM [falling, partial curve, poor fit]"
CCCOc1ccc(CNC(=O)Cn2c(=O)oc3ccccc32)cc1,AC50,[2],"14.1 µM [rising, partial curve, poor fit]"
CSC1=NSC2=NC(=O)/C(=C/c3coc4ccccc4c3=O)C(=N)N12,AC50,[2],"35.5 µM [rising, single point]"
Cc1cc(-n2c(SCc3ccccc3F)nc3n[nH]c(C)c3c2=N)ccc1Cl,AC50,[2],"17.8 µM [falling, partial curve]"
COc1ccc(-n2cc(C(=O)Nc3ccccc3C#N)c3ccccc3c2=O)cc1,AC50,[2],"14.1 µM [rising, partial curve, poor fit]"
CCCN1Cc2cccc(C(N)=O)c2C1=O,AC50,[1],"11.2 µM [rising, single point]"
same,AC50,[2],"14.1 µM [rising, single point]"
CC(C)(C)c1ccc(S(=O)(=O)N2CCC(c3ccncc3)CC2)cc1,AC50,[1],"0.158 µM [falling, full curve, poor fit]"
Cc1ccccc1NCC(=O)c1ccc(Br)cc1,AC50,[1],"7.94 µM [falling, partial curve, poor fit]"
same,AC50,[2],"2 µM [falling, single point]"
COc1ccc(CCN2C(=O)CS/C2=N\NC(=O)c2cccs2)cc1OC,AC50,[2],"1.58 µM [falling, full curve, poor fit]"
COCCNC(=O)CSc1nccn1Cc1ccc2c(c1)OCO2,AC50,[1],"6.31 µM [rising, single point]"
same,AC50,[2],"3.55 µM [rising, single point]"
Cc1ccc(NC(=O)c2ccnc(C(C)(C)C)c2)cc1,AC50,[2],"20 µM [rising, single point]"

# Reprinted at random: two entries already listed
smiles,measurement,setting,value
COc1cc(-c2nc3cnccn3c2Nc2ccc(C(C)C)cc2)ccc1O,AC50,[2],"15.8 µM [falling, single point]"
Cc1ccc(Oc2ccc(Cl)cc2NC(=O)c2ccc(F)cc2F)cc1,AC50,[1],"10 µM [rising, partial curve, poor fit]"

# 4 entries from above, with tabs.
smiles	measurement	setting	value
Cc1cc(C(F)(F)F)c2c(N)c(C(=O)Nc3c(Cl)cccc3Cl)sc2n1	AC50	[2]	0.501 µM [rising, full curve, poor fit]
CC(C)C(c1nnnn1Cc1ccco1)N1CCN(c2cccc(Cl)c2)CC1 (configuration not stated)	AC50	[2]	35.5 µM [rising, single point]
Cc1nn2c(=O)cc(COC(=O)c3ccc(NC(=O)c4ccc(C(C)(C)C)cc4)cc3)nc2s1	AC50	[2]	15.8 µM [falling, partial curve]
COCCNC(=O)CSc1nccn1Cc1ccc2c(c1)OCO2	AC50	[2]	3.55 µM [rising, single point]
